From patent US20060239990A1, “Protein Arginine N-Methyltransferase 2 (PRMT-2)” (priority 2003, published 2006) come the findings set out here.

Chains of the proteins cited; added tags and fusions are not shown.
UniProt Q9Z1E3: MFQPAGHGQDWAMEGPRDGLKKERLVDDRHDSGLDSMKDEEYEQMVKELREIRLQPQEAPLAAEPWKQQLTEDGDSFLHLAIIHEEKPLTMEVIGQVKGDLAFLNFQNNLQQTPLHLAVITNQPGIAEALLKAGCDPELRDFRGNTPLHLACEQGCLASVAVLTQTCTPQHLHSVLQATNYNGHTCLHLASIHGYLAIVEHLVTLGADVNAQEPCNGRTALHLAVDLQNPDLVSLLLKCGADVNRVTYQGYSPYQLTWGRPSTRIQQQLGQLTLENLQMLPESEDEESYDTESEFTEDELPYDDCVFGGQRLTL

These are yes or no findings as the source states them, for the method shown. Binding seen in cells or lysates may run through a third protein. Some binding calls cover weakened binding; strength is not graded here. Sequences can lack the tags named with a protein.

For one test, the target named is T1, GST-RB fusion protein (UniProt P06400).
T1 sequence (looked up): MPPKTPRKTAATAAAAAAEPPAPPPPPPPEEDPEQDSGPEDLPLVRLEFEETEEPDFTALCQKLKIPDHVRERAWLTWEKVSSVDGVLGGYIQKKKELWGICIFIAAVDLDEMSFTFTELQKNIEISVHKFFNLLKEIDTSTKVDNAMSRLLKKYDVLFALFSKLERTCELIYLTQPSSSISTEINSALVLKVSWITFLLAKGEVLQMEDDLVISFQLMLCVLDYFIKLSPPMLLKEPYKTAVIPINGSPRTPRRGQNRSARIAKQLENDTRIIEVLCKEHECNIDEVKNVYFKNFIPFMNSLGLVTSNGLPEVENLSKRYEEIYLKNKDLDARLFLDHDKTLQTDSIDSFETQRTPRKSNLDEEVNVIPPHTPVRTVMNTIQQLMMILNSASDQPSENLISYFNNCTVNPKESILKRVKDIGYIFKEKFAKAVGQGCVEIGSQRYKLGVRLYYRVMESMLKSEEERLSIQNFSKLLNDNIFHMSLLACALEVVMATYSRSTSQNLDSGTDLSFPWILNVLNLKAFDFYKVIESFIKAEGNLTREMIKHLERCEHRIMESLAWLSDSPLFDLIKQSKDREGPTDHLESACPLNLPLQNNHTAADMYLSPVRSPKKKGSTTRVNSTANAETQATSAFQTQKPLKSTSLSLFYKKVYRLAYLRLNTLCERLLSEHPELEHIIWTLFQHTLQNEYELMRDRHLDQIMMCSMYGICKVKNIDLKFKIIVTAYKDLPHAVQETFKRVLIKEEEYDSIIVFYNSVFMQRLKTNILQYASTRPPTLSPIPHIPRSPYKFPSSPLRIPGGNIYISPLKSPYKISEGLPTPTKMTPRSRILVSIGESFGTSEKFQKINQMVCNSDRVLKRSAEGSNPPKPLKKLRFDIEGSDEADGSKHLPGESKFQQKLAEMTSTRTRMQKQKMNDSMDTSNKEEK
Description: GST pull-down of S35-labeled in vitro translated protein with GST-RB.

The target in test [1] is IκB-α, endogenous in NIH3T3 cells (UniProt Q9Z1E3). Description: co-immunoprecipitation from NIH3T3 cell extracts with anti-IκB-α antibody, immunoblot with antibody to PRMT2.

B1: PRMT2(1-218) (enzyme)
chain: MATSGDCPRSESQGEEPAECSEAGLLQEGVQPEEFVAIADYAATDETQLSFLRGEKILILRQTTADWWWGERAGCCGYIPANHVGKHVDEYDPEDTWQDEEYFGSYGTLKLHLEMLADQPRTTKYHSVILQNKESLTDKVILDVGCGTGIISLFCAHYARPRAVYAVEASEMAQHTGQLVLQNGFADIITVYQQKVEDVVLPEKVDVLVSEWMGTCLL
modifications: [35S]-methionine label
B1: in the test with GST-RB fusion protein, the binding result is “binds”.

B2: mouse PRMT2 (untagged; endogenous in NIH3T3 cells, MEFs, GT1-7 cells and VSMC, or expressed from mouse PRMT2 cDNA in HEK293 cells) (enzyme, UniProt Q9R144 1-448, looked up)
chain: MEAPGEGPCSESQVIPVLEEDPVDYGCEMQLLQDGAQLQLQLQPEEFVAIADYTATDETQLSFLRGEKILILRQTTADWWWGERAGCCGYIPANHLGKQLEEYDPEDTWQDEEYFDSYGTLKLHLEMLADQPRTTKYHSVILQNKESLKDKVILDVGCGTGIISLFCAHHARPKAVYAVEASDMAQHTSQLVLQNGFADTITVFQQKVEDVVLPEKVDVLVSEWMGTCLLFEFMIESILYARDTWLKGDGIIWPTTAALHLVPCSAEKDYHSKVLFWDNAYEFNLSALKSLAIKEFFSRPKSNHILKPEDCLSEPCTILQLDMRTVQVPDLETMRGELRFDIQKAGTLHGFTAWFSVYFQSLEEGQPQQVVSTGPLHPTTHWKQTLFMMDDPVPVHTGDVVHGFCCVTKKSGMEKAHVCLSELGCHVRTRSHVSTELETGSFRSGGDS
Regarding B2, the binding entry in test [1] is “binds”.
